Laboratory results published in patent publication US7538193B2, “NO-modified hemoglobins and uses therefor” (Duke University, priority 1995, dated 2009).

Experiment: Endogenous SNO-Hb and Hb(FeII)NO in rat blood by photolysis-chemiluminescence
Type: in vivo
Details: for Hb(FeII)NO (nm) / SNO-Hb: endogenous level
Excerpt: A highly sensitive photolysis-chemiluminescence methodology was employed, which had been used for measuring RSNOs (S-nitrosothiols) in biological systems (Gaston, B., et al., Proc. Natl. Acad. Sci. USA 90:10957-10961 (1993); Stamler, J. S., et al., Proc. Natl. Acad. Sci USA 89:7674-7677 (1992)). The method involves photolytic liberation of NO from the thiol, which is then detected in a chemiluminesence spectrometer by reaction with ozone. The same principle of operation can be used to cleave (and measure) NO from nitrosyl-metal compounds (Antonini, E. and Brunori, M. In Hemoglobin and Myoglobin in Their Reactions with Ligands, American Elsevier Publishing Co., Inc., New York, pp. 29-31 (1971)). With adjustment of flow rates in the photolysis cell, complete photolysis of the NO ligand of Hb(FeII)NO is achieved. […] UV/VIS spectroscopy confirmed that NO remained attached to heme in the presence of excess HgCl^2.
Blood was obtained from the left ventricle (arterial) and jugular vein (venous) of anesthetized Sprague-Dawley rats. […] Red blood cells were isolated by centrifugation at 800 g, washed three times in phosphate buffered saline at 4° C., lysed by the addition of 4-fold excess volume of deionized water containing 0.5 mM EDTA, and desalted rapidly across G-25 columns according to the method of Penefsky at 4° C. In 24 rats, Hb samples were divided in two aliquots which were then treated or not treated with 10-fold excess HgCl2 over protein concentration as measured by the method of Bradford. Determinations of SNO-Hb and Hb(FeII)NO were made by photolysis-chemiluminescence. In 12 additional rats, further verification of the presence of SNO-Hb was made by assaying for nitrite after HgCl2 treatment. Specifically, samples (with and without HgCl2) were separated across Amicon-3 (Centricon filters, m.w. cut off 3,000) at 4° C. for 1 h, and the low molecular weight fractions collected in airtight syringes containing 1 μM glutathione in 0.5 N HCl. Under these conditions, any nitrite present was converted to S-nitrosoglutathione, which was then measured by photolysis-chemiluminescence (detection limit ˜1 nM). SNO-Hb was present in all arterial samples, and levels determined by this method (286±33 nM) were virtually identical to and not statistically different from those shown in Table 2. In venous blood, SNO-Hb was undetectable (0.00±25 nM); levels were not statistically different from those given above.
A highly sensitive photolysis-chemiluminescence methodology was employed. A somewhat similar assay has been used for measuring RSNOs (S-nitrosothiols) in biological systems (Gaston, B., et al., Proc. Natl. Acad. Sci. USA 90:10957-10961 (1993); Stamler, J. S., et al., Proc. Natl. Acad. Sci. USA 89:7675-7677 (1992)). The method involves photolytic liberation of NO from the thiol, which is then detected in a chemiluminesence spectrometer by reaction with ozone. The same principle of operation can be used to cleave (and measure) NO from nitrosyl-metal compounds (Antonini, E. and Brunori, M. In Hemoglobin and Myoglobin in Their Reactions with Ligands, American Elsevier Publishing Co., Inc., New York, pp. 29-31 (1971)). With adjustment of flow rates in the photolysis cell, complete photolysis of the NO ligand of Hb(FeII)NO could be achieved. […] UV/VIS spectroscopy confirmed that NO remained attached to heme in the presence of excess HgCl2.

Substance | Hb(FeII)NO (nm) (arterial blood) | Hb(FeII)NO (nm) (venous blood) | SNO-Hb level by nitrite assay after HgCl2 treatment (arterial samples, 12 additional rats) [nM] | SNO-Hb (arterial blood) [nM] | SNO-Hb (venous blood) [nM]
Hb(FeII)NO: hemoglobin with NO bound to the Fe of the heme | 536 ± 99 | 894 ± 126 | – | – | –
SNO-Hb: S-nitrosohemoglobin, hemoglobin S-nitrosylated at thiol groups (cysβ93) | – | – | 286 ± 33 | 311 ± 55 | 32 ± 14
